In PubChem BioAssay AID2685 (National Center for Advancing Translational Sciences (NCATS), 2010):
This is one part of the list. The main result of the screen is listed elsewhere. These columns were measured beside it and carry no call. The list favours compounds with an active or inconclusive main result. Potencies come from curve fits of mixed quality, noted in brackets.

Test: qHTS Assay for Lipid Storage Modulators in Drosophila S3 Cells;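 for cell number change: cells counted by Cell Tracker Red CMTPX staining in the red channel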
Settings: BODIPY lipid droplet fluorescence, 18-24 h; for cell number change: measured here: cell count max response, cells fed with added oleic acid
Procedure, shortened: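 Drosophila S3 cells got compounds at several concentrations plus oleic acid (400 uM solution). Laser-scanning cytometry with 488 nm excitation read lipid droplets at 500-530 nm and cells at 575-640 nm. Percent activity was relative to 20 uM Triacsin C.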

[1] = measured here: lipid fluorescence (Fed channel) AC50, cells fed with added oleic acid
[2] = measured here: cell number channel AC50, cells fed with added oleic acid

| SMILES | cell number change [%] | AC50 [1] | AC50 [2] |
| --- | --- | --- | --- |
| COc1ccc(C2C(C(N)=O)=C(C)Nc3nc(CCCO)nn32)cc1 (centres undefined) | -11.1 |  |  |
| Cc1nn(CC2CC2)c(=O)n1-c1cccc(Cl)c1 | 8.66 | 0.731 µM [rising, single point] |  |
| O=S(=O)(NCCc1ccccc1)c1ccc(Cl)nc1 | 33.3 |  | 20.6 µM [rising, single point] |
| CC(Sc1nnc(C2CC2)n1C1CC1)C(=O)c1ccc(Br)cc1 (centres undefined) | -36.3 | 2.31 µM [falling, partial curve, poor fit] | 14.6 µM [falling, partial curve] |
| O=C(NCc1n[nH]c(=S)n1-c1cccc(Cl)c1)c1ccc(S(=O)(=O)N2CCCC2)cc1 | -37.7 | 3.66 µM [rising, single point] | 0.164 µM [falling, full curve, poor fit] |
| COc1ccc(CNC(=O)C2CCCN2S(=O)(=O)c2ccc(F)cc2)cc1 (centres undefined) | -40 | 29.1 µM [falling, single point] | 29.1 µM [falling, single point] |
| NC(=O)c1nsnc1-c1ccccc1O | -62.8 |  | 3.26 µM [falling, full curve] |
| COc1ccc(Br)cc1CN(C)C(=O)CNC(=O)c1ccc2ccccc2c1 | -21 | 6.51 µM [falling, partial curve] |  |
| Cc1ccc(Nc2ccc([N+](=O)[O-])nc2[N+](=O)[O-])cc1 | 24.4 | 18.4 µM [falling, partial curve, poor fit] | 0.92 µM [falling, full curve] |
| CCOC(=O)C1=C(c2ccccc2)OC(N)=C(C#N)C1c1ccc(Br)s1 (centres undefined) | -11.9 | 29.1 µM [falling, single point] |  |
| Cc1nc(N2CCN(Cc3ccc4c(c3)OCO4)CC2)nc2c1C(=O)CC(c1ccco1)C2 (centres undefined) | -13.5 | 0.116 µM [rising, single point] |  |
| Cc1ccccc1-c1nc2cc(NC(=O)C3CC3)ccc2o1 |  |  | 0.92 µM [falling, full curve] |
| COc1ccc(N2CCN(CC(=O)c3ccc(O)cc3O)CC2)cc1 | 34.3 |  | 16.4 µM [rising, partial curve] |
| O=C(O)CNS(=O)(=O)c1ccc2c3c(cccc13)C(=O)N2 | 8.99 | 29.1 µM [rising, single point] |  |
| CC(=O)Nc1cccc(NC(=O)c2ccc(C)c([N+](=O)[O-])c2)c1 | -16 |  | 0.651 µM [falling, single point] |
| O=C(Nc1ccccn1)C1CCN(S(=O)(=O)c2cccc3nonc23)CC1 | 30.1 |  | 1.64 µM [rising, single point] |

As entered above:
In cell number change [%], Cc1nn(CC2CC2)c(=O)n1-c1cccc(Cl)c1 is entered as 8.66
In AC50 [2], O=C(Nc1ccccn1)C1CCN(S(=O)(=O)c2cccc3nonc23)CC1 is entered as 1.64 µM [rising, single point]
